Results are given in words; binding and its absence hold for the method and conditions named. Binding seen in cells or lysates may run through a third protein. Sequences can lack the tags named with a protein. Blank lines part the entries; values can stand above or below the binder they belong to.
Legend:
[1] = target: BSK3-HA (BRASSINOSTEROID-… KINASE 3, HA-tagged, expressed from BSK3pro:BSK3-HA in Arabidopsis) (Arabidopsis thaliana) (UniProt Q8W4L3); assay: co-IP; transgenic Arabidopsis co-expressing BSK3-HA and a GFP/EYFP fusion; 300-870 μg microsomal proteins from 7 or 8-day-old light-grown seedlings; IP with anti-HA antibody and protein G agarose, blot with anti-GFP; also done after 1 μM BL for 30 minutes (BSK3-HA/BRI1-GFP reduced, the others not affected)
[2] = target: BSK3-YFP^N (Arabidopsis thaliana) (UniProt Q8W4L3); assay: split reporter; BiFC with halves of YFP (pSPYNE-35S, pSPYCE-35S), transient co-expression in Nicotiana benthamiana leaves, confocal microscopy of leaf epidermal cells

binding [1]: no binding
B1: CDG1-EYFP (CONSTITUTIVE … GROWTH 1 kinase, EYFP fusion) (enzyme, UniProt Q9LSE1 1-432)
chain: MVSCLCFRPSRKTKLKDKSHKRSIRNQTSSSSAQPAGTAKEVDSSSSQTVVQDSSRYRCQIFSYRELAIATNSFRNESLIGRGGFGTVYKGRLSTGQNIAVKMLDQSGIQGDKEFLVEVLMLSLLHHRNLVHLFGYCAEGDQRLVVYEYMPLGSVEDHLYDLSEGQEALDWKTRMKIALGAAKGLAFLHNEAQPPVIYRDLKTSNILLDHDYKPKLSDFGLAKFGPSDDMSHVSTRVMGTHGYCAPEYANTGKLTLKSDIYSFGVVLLELISGRKALMPSSECVGNQSRYLVHWARPLFLNGRIRQIVDPRLARKGGFSNILLYRGIEVAFLCLAEEANARPSISQVVECLKYIIDHTIRKERRTRRRLLGGNKDGAGTSRSPDETMMRMLEEEEEYVTSEEAIERRRVIVDDARTWAGMNRRGATPPTPTP

binding [2]: no binding
B2: TMK1-YFP^C (plasma membrane-localized receptor kinase TMK1) (receptor, UniProt P43298 24-942)
chain: DSDGDLSAMLSLKKSLNPPSSFGWSDPDPCKWTHIVCTGTKRVTRIQIGHSGLQGTLSPDLRNLSELERLELQWNNISGPVPSLSGLASLQVLMLSNNNFDSIPSDVFQGLTSLQSVEIDNNPFKSWEIPESLRNASALQNFSANSANVSGSLPGFLGPDEFPGLSILHLAFNNLEGELPMSLAGSQVQSLWLNGQKLTGDITVLQNMTGLKEVWLHSNKFSGPLPDFSGLKELESLSLRDNSFTGPVPASLLSLESLKVVNLTNNHLQGPVPVFKSSVSVDLDKDSNSFCLSSPGECDPRVKSLLLIASSFDYPPRLAESWKGNDPCTNWIGIACSNGNITVISLEKMELTGTISPEFGAIKSLQRIILGINNLTGMIPQELTTLPNLKTLDVSSNKLFGKVPGFRSNVVVNTNGNPDIGKDKSSLSSPGSSSPSGGSGSGINGDKDRRGMKSSTFIGIIVGSVLGGLLSIFLIGLLVFCWYKKRQKRFSGSESSNAVVVHPRHSGSDNESVKITVAGSSVSVGGISDTYTLPGTSEVGDNIQMVEAGNMLISIQVLRSVTNNFSSDNILGSGGFGVVYKGELHDGTKIAVKRMENGVIAGKGFAEFKSEIAVLTKVRHRHLVTLLGYCLDGNEKLLVYEYMPQGTLSRHLFEWSEEGLKPLLWKQRLTLALDVARGVEYLHGLAHQSFIHRDLKPSNILLGDDMRAKVADFGLVRLAPEGKGSIETRIAGTFGYLAPEYAVTGRVTTKVDVYSFGVILMELITGRKSLDESQPEESIHLVSWFKRMYINKEASFKKAIDTTIDLDEETLASVHTVAELAGHCCAREPYQRPDMGHAVNILSSLVELWKPSDQNPEDIYGIDLDMSLPQALKKWQAYEGRSDLESSTSSLLPSLDNTQMSIPTRPYGFAESFTSVDGR
